# Measured data: PubChem BioAssay AID602196 (INSERM, 2012)
# Assay: 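Modifiers of cisplatin sensitivity in A549 cells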
# Cell system: human A549 lung cancer cells
# Knock-down reagent: siRNA pair against human genes
# Timing: 48 h transfection before cisplatin; time from cisplatin to read-out not stated
# Treatment: cisplatin at a dose killing half of control-siRNA cells; exact dose and duration not given
# Measured: 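Shift in cisplatin death relative to control siRNA, from -50 (all cells die) to +50 (no cells die); siRNAs harmful on their own scored 0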
# Direction: two-siRNA summed score (-2 to +2): higher = both siRNAs protect from cisplatin killing; -2 means both sensitise; mean protection from cisplatin (shift in death) and protection from cisplatin (shift in death), siRNA C and protection from cisplatin (shift in death), siRNA D: higher = protection from cisplatin killing
# Rule for the call: 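Each siRNA scores 0 if harmful alone by LDH or WST-1, otherwise +1 if it reduces and -1 if it increases cisplatin killing; a gene is active when both siRNAs agree (sum +2 or -2)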
# Calls: active = both siRNAs shift cisplatin killing the same way; inactive = no consistent shift, or siRNA harmful alone
# The deposit covers about 23,000 reagents; this is an unselected part. 455 of all reagents (2%) were called active. 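Active includes both protection and sensitisation; some change values fall well beyond the stated -50 to +50 range.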 Reagents against one gene are numbered here. Not stated in the record: the amount of reagent.
gene,reagent no.,two-siRNA summed score (-2 to +2),mean protection from cisplatin (shift in death) (%),"protection from cisplatin (shift in death), siRNA C (%)","protection from cisplatin (shift in death), siRNA D (%)",activity call
PNCK,1,0,34.5,21.3,47.8,inactive
FLJ42258 (retired record),1,0,10.4,7.6,13.2,inactive
PIEZO1,1,0,6.4,8.1,4.8,inactive
BICDL1,1,0,1.7,9.6,-6.2,inactive
SRSF3,1,1,6.6,-9.8,23,inactive
ACO1,1,0,-6.8,-6.2,-7.4,inactive
OR10A3,1,0,-0.5,-2.3,1.3,inactive
SNRPB2,1,0,4.1,7.3,0.9,inactive
UNC13C,1,0,-4.3,21.4,-29.9,inactive
TOMM40L,1,-1,-9.8,7.6,-27.2,inactive
IGSF6,1,1,11.4,6.7,16,inactive
PIK3CD,1,1,18.8,6.6,31.1,inactive
MYL1,1,0,2.7,5.1,0.4,inactive
CHRND,1,0,-1.2,-6.7,4.4,inactive
MT1G,1,0,23.9,39.6,8.2,inactive
CPAMD8P1,1,0,7.5,19.5,-4.4,inactive
DHRS2,1,0,-4.1,3.8,-12,inactive
LOC442044,1,1,16.1,23.2,9,inactive
PIDD1,1,0,3.7,14.2,-6.9,inactive
AGPAT3,1,0,13.3,19.1,7.6,inactive
LOC387917,1,0,-3.7,0.9,-8.3,inactive
GRHL1,1,-1,-5.5,4.5,-15.5,inactive
RIN2,1,0,8,17.6,-1.6,inactive
RANGRF,1,0,-2.5,-1.3,-3.6,inactive
ALOX5,1,0,5.1,-0.4,10.5,inactive
SLC60A1,1,0,5,-1.7,11.7,inactive
LOC126502,1,0,-0.3,8.6,-9.2,inactive
H2BC4,1,0,5.9,5.1,6.6,inactive
SLC7A5,1,1,16.5,21.6,11.4,inactive
VCF1,1,0,6.4,8.3,4.6,inactive
CLN8,1,0,14.7,27.5,1.9,inactive
LRRC34,1,0,-0.4,0.8,-1.7,inactive
ENO2,1,-1,-0.8,-12,10.3,inactive
LOC389347,1,1,7.1,-4.2,18.3,inactive
LIPE,1,1,16.3,16.7,16,inactive
RBMS1,1,0,14.2,9.8,18.5,inactive
MYT1L,1,0,22.8,17.4,28.2,inactive
PIGY,1,0,12.1,4.3,19.9,inactive
IGSF1,1,0,17.8,20.2,15.4,inactive
LOC441877,1,1,14.4,8.6,20.2,inactive
PLA2G2A,1,0,-2.3,-14.3,9.7,inactive
LY6G5B,1,0,2.1,4.8,-0.6,inactive
RGS3,1,0,24.6,37.6,11.6,inactive
ANXA13,1,-1,11.6,33.8,-10.6,inactive
LOC441474,1,1,14.5,25.7,3.3,inactive
IL12A,1,-1,-10.9,-4.5,-17.4,inactive
GANAB,1,0,-1.5,-0.4,-2.7,inactive
HLA-DPA1,1,1,11.3,-12.1,34.6,inactive
SLC27A6,1,0,15.8,11.2,20.4,inactive
SLC27A6,2,1,28.8,23,34.7,inactive
LINC02914,1,0,-0.2,1,-1.4,inactive
ERCC6L2,1,0,2.3,-5.8,10.4,inactive
LOC399933,1,1,14.8,9.8,19.7,inactive
CFAP45,1,-1,-7,-24,10.1,inactive
KCNA3,1,0,-2.6,16.2,-21.3,inactive
NEXN-AS1,1,0,29.5,17.8,41.2,inactive
LOC389939,1,-1,-5.6,5.5,-16.6,inactive
